Laboratory results: paper doi:10.1101/832287
These are yes or no findings as the source states them, for the method shown. In cells and extracts the contact can be indirect. These calls come from enrichment with a bait or labelling near it, and not all partners need be listed.

Amino acid sequences for entries named in this document (tags omitted). Residues count along the entry.
UniProt P03886: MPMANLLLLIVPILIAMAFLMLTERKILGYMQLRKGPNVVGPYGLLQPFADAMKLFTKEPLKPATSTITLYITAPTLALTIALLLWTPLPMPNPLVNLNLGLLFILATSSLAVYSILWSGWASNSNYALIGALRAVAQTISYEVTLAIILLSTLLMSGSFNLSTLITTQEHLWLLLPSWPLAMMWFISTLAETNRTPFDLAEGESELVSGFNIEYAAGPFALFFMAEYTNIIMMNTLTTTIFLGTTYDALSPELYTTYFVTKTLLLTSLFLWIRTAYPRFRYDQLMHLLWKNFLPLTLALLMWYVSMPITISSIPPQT
UniProt Q9HD34: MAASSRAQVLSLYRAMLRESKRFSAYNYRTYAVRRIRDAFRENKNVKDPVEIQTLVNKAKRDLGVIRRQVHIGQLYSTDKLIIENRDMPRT
UniProt P56556: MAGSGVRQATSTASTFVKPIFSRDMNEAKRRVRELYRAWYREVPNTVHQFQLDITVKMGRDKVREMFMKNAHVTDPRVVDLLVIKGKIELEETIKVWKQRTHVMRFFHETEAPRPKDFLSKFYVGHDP
UniProt O95182: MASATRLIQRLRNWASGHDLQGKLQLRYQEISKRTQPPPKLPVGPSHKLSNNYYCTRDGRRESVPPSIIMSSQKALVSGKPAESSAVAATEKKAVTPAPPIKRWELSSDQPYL
UniProt O95299, residues 36-355: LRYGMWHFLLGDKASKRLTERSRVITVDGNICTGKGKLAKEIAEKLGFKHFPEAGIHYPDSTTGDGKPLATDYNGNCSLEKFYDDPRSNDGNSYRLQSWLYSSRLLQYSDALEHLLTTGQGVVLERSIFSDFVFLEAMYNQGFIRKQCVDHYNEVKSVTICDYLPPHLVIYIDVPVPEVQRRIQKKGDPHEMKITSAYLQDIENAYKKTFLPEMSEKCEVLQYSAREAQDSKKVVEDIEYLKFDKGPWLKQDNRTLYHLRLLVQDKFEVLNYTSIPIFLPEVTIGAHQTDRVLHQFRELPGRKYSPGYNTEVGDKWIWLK
UniProt Q9UI09: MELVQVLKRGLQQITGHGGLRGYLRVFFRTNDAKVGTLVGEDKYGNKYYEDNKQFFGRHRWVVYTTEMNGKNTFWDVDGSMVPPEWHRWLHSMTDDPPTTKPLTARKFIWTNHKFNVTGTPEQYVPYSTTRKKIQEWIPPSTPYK
UniProt O95178, residues 34-105: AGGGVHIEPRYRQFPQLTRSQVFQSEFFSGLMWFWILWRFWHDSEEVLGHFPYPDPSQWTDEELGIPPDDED
UniProt O43676: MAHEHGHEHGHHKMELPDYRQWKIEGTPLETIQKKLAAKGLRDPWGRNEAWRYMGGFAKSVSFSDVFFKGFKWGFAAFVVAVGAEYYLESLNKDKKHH
UniProt P17568: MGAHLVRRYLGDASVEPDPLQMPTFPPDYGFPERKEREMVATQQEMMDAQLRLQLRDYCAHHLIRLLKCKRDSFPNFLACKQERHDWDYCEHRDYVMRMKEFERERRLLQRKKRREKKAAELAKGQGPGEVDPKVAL
UniProt O95169, residues 29-186: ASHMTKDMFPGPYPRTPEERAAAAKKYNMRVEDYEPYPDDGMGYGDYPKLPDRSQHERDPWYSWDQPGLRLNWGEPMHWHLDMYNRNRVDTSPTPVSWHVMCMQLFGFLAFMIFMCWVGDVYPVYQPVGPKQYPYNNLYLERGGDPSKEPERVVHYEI
UniProt Q9Y6M9: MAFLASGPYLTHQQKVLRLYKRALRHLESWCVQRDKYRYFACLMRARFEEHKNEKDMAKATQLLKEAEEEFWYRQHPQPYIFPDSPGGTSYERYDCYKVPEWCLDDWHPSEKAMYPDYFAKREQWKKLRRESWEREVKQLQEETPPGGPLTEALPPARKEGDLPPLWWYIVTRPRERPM
UniProt O43181, residues 43-175: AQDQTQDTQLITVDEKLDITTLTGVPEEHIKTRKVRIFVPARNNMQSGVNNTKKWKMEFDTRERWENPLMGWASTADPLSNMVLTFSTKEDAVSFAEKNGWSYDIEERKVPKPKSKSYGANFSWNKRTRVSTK
UniProt O75380, residues 29-124: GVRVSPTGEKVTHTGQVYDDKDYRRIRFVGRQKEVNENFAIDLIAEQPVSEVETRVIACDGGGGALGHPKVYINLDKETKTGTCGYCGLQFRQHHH
UniProt P47985: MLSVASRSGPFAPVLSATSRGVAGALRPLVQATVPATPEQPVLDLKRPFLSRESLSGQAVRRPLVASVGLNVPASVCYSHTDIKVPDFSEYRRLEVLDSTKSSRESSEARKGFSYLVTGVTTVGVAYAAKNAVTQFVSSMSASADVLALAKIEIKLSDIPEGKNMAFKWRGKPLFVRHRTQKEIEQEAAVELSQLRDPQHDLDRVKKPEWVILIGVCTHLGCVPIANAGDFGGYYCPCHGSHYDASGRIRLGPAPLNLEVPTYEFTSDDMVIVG

B1: LYRM1 (protein, UniProt O43325 1-122)
chain: MTTATRQEVLGLYRSIFRLARKWQATSGQMEDTIKEKQYILNEARTLFRKNKNLTDTDLIKQCIDECTARIEIGLHYKIPYPRPIHLPPMGLTPLRGRGLRSQEKLRKLSKPVYLRSHDEVS
B2: LYRM2 (protein, UniProt Q9NU23 20-88)
chain: QQVLLLYRRILQTIRQVPNDSDRKYLKDWAREEFRRNKSATEEDTIRMMITQGNMQLKELEKTLALAKS
B3: LYRM7 (protein, UniProt Q5U5X0 1-104)
chain: MGRAVKVLQLFKTLHRTRQQVFKNDARALEAARIKINEEFKNNKSETSSKKIEELMKIGSDVELLLRTSVIQGIHTDHNTLKLVPRKDLLVENVPYCDAPTQKQ

biological target: ND1 subunit of RCI (NADH dehydrogenase) (human (endogenous in HeLa)) (UniProt P03886); test: affinity purification with mass spectrometry

| Molecule | binding |
| --- | --- |
| LYRM4 (ISD11) (from UniProt Q9HD34 1-91) | binds |
| NDUFA6 (from UniProt P56556 1-128) | binds |
| NDUFA7 (from UniProt O95182 1-113) | binds |
| NDUFA10 (from UniProt O95299 36-355) | binds |
| NDUFA12 (from UniProt Q9UI09 1-145) | binds |
| NDUFB2 (from UniProt O95178 34-105) | binds |
| NDUFB3 (from UniProt O43676 1-98) | binds |
| NDUFB7 (from UniProt P17568 1-137) | binds |
| NDUFB8 (from UniProt O95169 29-186) | binds |
| NDUFB9 (from UniProt Q9Y6M9 1-179) | binds |
| NDUFS4 (from UniProt O43181 43-175) | binds |
| NDUFS6 (from UniProt O75380 29-124) | binds |
| UQCRFS1, the Rieske FeS protein from RCIII (from UniProt P47985 1-274) | binds |

biological target: ND1 subunit of RCI (NADH dehydrogenase) (human (endogenous in HeLa)) (UniProt P03886); test: affinity purification with mass spectrometry; remark: another data set of the same source

| Molecule | binding |
| --- | --- |
| B1 | binds |
| B2 | binds |
| B3 | binds |
